Several values for one entry are separate records, joined by “and”; a condition that tells them apart may be missing. Equal entries are not always repeated. Entries after “also recorded” stand apart in the source; their conditions may differ.
What was measured:
[1] = Galvanostatic cycling at 1C in 3M LiTFSI electrolyte
Source text: After 135 cycles, the discharge capacity retention of compound 2 is 65%. […] In situ infrared spectra of compound 2 (FIG. 14) show the C═O signal at wavenumbers between 1700 and 1600 cm^−1 disappearing during discharging and reappearing during charging, indicating good cycling reversibility of compound 2 as the organic cathode for lithium-ion storage.
(§1) To fabricate free-standing electrodes, the active material (compounds 1-4), Katjenblack carbon (KB), and polytetrafluoroethylene (PTFE) binder were mixed in a 5:4:1 mass ratio and then pressed into pellets with the aid of EtOH (areal mass loading ˜1.5 mg cm^−2). The typical thickness of these free-standing cathodes was ˜150 μm from the SEM measurement (FIG. 9A). For Fourier transform infrared measurements, macrocycle compound 2, KB, and PTFE binder were mixed in a 6:3:1 mass ratio to give an active material areal mass loading of ˜2 mg cm^−2 For the long cycling and rate performance test, a mass ratio of 3:5:2 (30% of compound 2 and compound 4) was used, and the mixture was rolled onto a stainless-steel mesh disc with ⅜-inch diameter (areal mass loading ˜0.4 mg cm^−2). All electrodes were dried at 85° C. under vacuum for 24 hours before using.
(§2) The 0.5M lithium electrolyte solution was prepared by slowly adding LiTFSI (0.287 g) into a 1:1 solution of DME/DOL (2 mL). This 0.5M electrolyte solution was used for all electrochemical studies, while a more viscous 3M electrolyte solution (prepared following the same procedure as stated above) was used for performance characterization studies. CR2032 coin cell and glass fiber separators (Whatman, Grade GF/A) were used for all electrochemical characterizations unless otherwise indicated. Lithium foil with 7/16-inch diameter was used as the anode and the amount of electrolyte added was 60 μL. Half-cells were assembled adopting a conventional CR2032 coin cell architecture and subsequently using electrode 1, electrode 2, electrode 3, and electrode 4 as the cathode and lithium foil as the anode.

[2] = Charge/discharge of organic cathodes in CR2032 lithium half-cells; conditions: for electron transfer corresponding to specific capacity: 0.1 C; for dQ/dV redox peak for lithiation: LiTFSI in DME/DOL electrolyte; for specific (discharging) capacity: LiTFSI in DOL/DME electrolyte
Source text: With compounds 1-4 in hand, we evaluated their electrochemical redox behavior as the active components within the organic electrodes. FIG. 2A-FIG. 2D show the charge/discharge profiles during typical cycling for compounds 1-4 under the current density of 100 mA g^−1, and using lithium bis-trifluoromethanesulfonimide (LiTFSI) in dioxolane/dimethoxyethane (DOL/DME) as the electrolyte. Assuming the transfer of eight electrons to their carbonyl groups, the theoretical specific capacities of compounds 1-3 are 406.02, 294.46, and 257.44 mAh g^−1, respectively.
All experiments were performed at room temperature, and all cells were assembled in an mBraun argon-filled glovebox (<0.5 ppm water and oxygen content). Electrochemical measurements were recorded on Bio-Logic VMP3 potentiostat and LAND CT-2001A battery tested. The following starting materials and solvents were purchased from commercial suppliers and used without further purification: lithium bis(trifluoromethanesulfonyl)imide (LiTFSI), dimethoxyethane (DME), and dioxolane (DOL) from MilliporeSigma. LiTFSI was allowed to dry in the glovebox for 24 prior to being used.
as §1, §2

Compound | columbic efficiency ([1]; 3M LiTFSI electrolyte, 1C) | discharge capacity retention ([1]; after 135 cycles, 3M LiTFSI, 1C) | capacity maintained ([1]; over 120 cycles, current density 1C) | electrons reversibly stored per molecule during electrochemical cycling [2] | electron transfer corresponding to specific capacity ([2]; 0.5M electrolyte) | electron transfer corresponding to specific capacity ([2]; 3M electrolyte) | dQ/dV redox peak for lithiation [2] | discharge (specific) capacity ([2]; typical cycle, 3M electrolyte solution) | charge/discharge profile observation ([2]; current density 100 mA g^−1, LiTFSI in DOL/DME) | specific (discharging) capacity ([2]; current density 100 mA g^−1)
O=C1C(=O)c2ccc3cc(ccc3c2)C(=O)C(=O)c2ccc3cc(ccc3c2)C(=O)C(=O)c2ccc3cc(ccc3c2)C(=O)C(=O)c2ccc3cc1ccc3c2 [compound 2] | ~99% | ~65% | higher than 150 mAh g^−1 | up to eight electrons | ~6.3 e^− | up to 7.6 e^− | 2.37 V and 2.08 V | 279 mAh g^−1 | – | –
O=C1C(=O)c2ccc(cc2)-c2ccc(cc2)C(=O)C(=O)c2ccc(cc2)-c2ccc(cc2)C(=O)C(=O)c2ccc(cc2)-c2ccc(cc2)C(=O)C(=O)c2ccc(cc2)-c2ccc1cc2 [compound 3] | – | – | – | cannot reversibly store all eight electrons | – | – | – | – | irreversible discharging tail near the cut-off voltage | –
O=C(C(=O)c1ccc2ccccc2c1)c1ccc2ccccc2c1 [compound 4, 1,2-bis(2-naphthyl)ethan-1,2-dione, reference compound] | – | – | – | – | – | – | 2.17 V | – | – | 148.7 mAh g^−1
O=C1C(=O)c2ccc(cc2)C(=O)C(=O)c2ccc(cc2)C(=O)C(=O)c2ccc(cc2)C(=O)C(=O)c2ccc1cc2 [compound 1] | – | – | – | up to four electrons; also recorded: cannot reversibly store all eight electrons | – | – | – | – | – | 171 mAh g^−1
